The campaign covered roughly 340,000 compounds. About 170 (0.05%) were called active. The inconclusive results got no clear call from the source; some entries with a clear call stand among them for comparison. Calls come from the whole dose curve; as a rule, active = well fitted inhibition curve with a large enough effect in the signal ratio, with a control signal flat (not every such curve was filed as active); inconclusive = small, poorly fitted or top-dose-only effect, or effect the other way, or a change in a side signal; inactive = flat fitted curve, though single readings scatter; the % refers to the signal ratio. Potencies of inconclusive entries are doubtful fits and often do not repeat.
Test: qHTS Assay to Find Inhibitors of Chronic Active B-Cell Receptor Signaling;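 for activity change, negative = inhibition: plate controls were basal doxycycline-induced cells for no effect and cells given 10 µM MG132 for full effect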
Details: ABC-DLBCL IkBa-CBG/CBR reporter, luminescence ratio (green luciferase fused to IkBa over red control in TMD8 lymphoma cells), 4 h; activity change, negative = inhibition: at 46.1 µM (top of the series)
How it was run: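 TMD8 ABC-DLBCL cells carrying doxycycline-inducible green luciferase fused to IkappaBalpha plus unfused red luciferase were exposed to compounds (up to 46 uM) for 4 hrs at 37C. Activity came from the overlap-corrected green/red luminescence ratio.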
Potency is the fitted concentration of half-maximal effect.

SMILES | activity change, negative = inhibition | Potency
COc1cc(C(=O)NC2CCN(Cc3nnnn3Cc3cccs3)CC2)cc(OC)c1OC | inconclusive: -17.3% | –
COc1ccc(C(=O)Nc2ccc(N3CCN(c4ccccc4)CC3)c(C(=O)O)c2)cc1 | – | inconclusive: 0.501 µM [falling, partial curve, poor fit]
Cc1cccc(OCC(=O)N(Cc2cccs2)C2CCS(=O)(=O)C2)c1C (stereo not drawn) | inconclusive: -18.6% | –
O=C(Nc1ccc2ccccc2n1)C1CCCCC1 | inconclusive: -5.25% | –
CCSc1nc(N)c(C#N)c(-c2ccco2)c1C#N | inactive | –
Cc1cccc(NC(=O)c2cnn(-c3ccccc3)c2C)c1C | – | inconclusive: 12.6 µM [falling, single point]
O=C(CCl)N1c2ccccc2CCc2ccccc21 | inconclusive: -10.6% | –
COCCN1Cc2cccc(C(=O)Nc3cccc(C)c3C)c2C1=O | – | inconclusive: 32.6 µM [rising, partial curve, poor fit]
CC1CCN(CC(=O)n2c3c(c4ccccc42)CCCC3)CC1 | inconclusive: 13.8% | –
O=C(O)COn1c(-c2ccccc2)nc2ccc([N+](=O)[O-])cc21 | inconclusive: -14.4% | –
O=C1CC(c2ccccc2)CC(O)=C1C=NCCc1ccccc1 (stereo not drawn) | inactive | –
CCC1Cc2c(nc(N)c3c(N)nc(N4CCCCC4)c(C#N)c23)O1 (stereo not drawn) | inconclusive: 18.7% | –
CCn1c(N2CCN(S(=O)(=O)c3ccccc3C(F)(F)F)CC2)nc2ccccc21 | inactive | –
O=C(Nc1ccc(Cl)c(Cl)c1)Nc1nnc(-c2ccncc2)s1 | inconclusive: 18.4% | –
FC(F)(F)c1ccc(Cl)c(NC(=S)NC2CC2)c1 | – | inconclusive: 11.6 µM [falling, partial curve, poor fit]
CCc1nc(Nc2ccccc2OC)c2oc3ccccc3c2n1 | inconclusive: -1.21% | –
COc1ccc(CN2CCN(C(=O)c3ccc(CNS(=O)(=O)c4ccc(C)cc4)cc3)CC2)c(OC)c1OC | inconclusive: -0.0794% | –
O=C(NC1CCCCCCC1)c1ccc(F)cc1 | inactive | –
Cc1cc(C=C2C(=O)c3ccccc3C2=O)c(C)n1C | – | inconclusive: 29.1 µM [falling, single point]
CCOC(=O)C1=C(CC)OC(N)=C(C#N)C1c1ccc(OC)c(C)c1OC (stereo not drawn) | inconclusive: -13.7% | –
COc1ccc(C(=O)Nc2cccc(/C(C)=N\NC(=O)c3ccoc3C)c2)cc1OC | – | inconclusive: 35.5 µM [rising, single point]
COc1ccc(OC)c(/C=C2\SC(N3CCCC(C)C3)=NC2=O)c1 (stereo not drawn) | inactive | –
Cc1c(CCOC(=O)CC23CC4CC(CC(C4)C2)C3)sc[n+]1CC(=O)c1ccccc1 | inactive | –

Record cards, from the list above:
O=C(O)COn1c(-c2ccccc2)nc2ccc([N+](=O)[O-])cc21 is entered as activity change, negative = inhibition: inconclusive: -14.4%
Cc1cc(C=C2C(=O)c3ccccc3C2=O)c(C)n1C is entered as Potency: inconclusive: 29.1 µM [falling, single point]
